pIC50: −log10 of the molar value.
Assay: Antiproliferative activity against human MDA-MB-435 cells by SRB assay

## COc1cc2c(c(OC)c1OC)-c1ccc(OC)c(=O)cc1[C@@H](NC(C)=O)CC2 [COLCHICINE]
  pIC50: 7.80

Reference: ChEMBL document CHEMBL3132861 (Medchemcomm, 2013)
